This passage reports survivor count and T/C results from PubChem BioAssay AID328 (DTP/NCI, 2004).

The list shows only some results of the screen, not a fair sample: it is rich in T/C values a quarter to a half above the control, in often repeated tests (any T/C) and in doses without a T/C. Other doses and runs of a compound stand elsewhere. T/C gives the treated animals as a percentage of the vehicle group. Some entries give survivors of the animals treated and no T/C: the source holds a T/C of zero for them, seemingly a mark for toxic or unscored doses. Some doses without a T/C left all or most animals alive at the check, yet need not have been tolerated: survival well below the control is almost never listed, so the zero probably covers shortened survival too. Survivors were counted at the toxicity check, usually on the fifth day, unless a day is given; later deaths do not show. Schedule codes are those of the source, read here as Q, the interval in days (D) or hours (H), X, the number of doses. Some doses were run more than once; the results are listed from low to high. Where survival is the endpoint, the PubChem record calls one and a half times the control and up active, and a quarter to a half above the control has no call in these data; cut-offs in other NCI protocols can differ. Some T/C values carry the count of animals alive at the toxicity check (mostly the fifth day); where none is given, no animal had died by that day.

In this assay the test system is BDF1 mice, P388 leukemia ip, median survival T/C. The assay is described as follows: NCI In Vivo Anticancer Drug Screen. Data for tumor model P388 Leukemia (intraperitoneal) in B6D2F1 (BDF1) mice. The conditions noted are these: T/C endpoint: median survival time, higher T/C = longer survival. In short, it runs like this:
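Reported as T/C, where T is the survival measurement in dosed animals and C the same measurement in vehicle controls.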

Where [1] appears, read: dose: 100.0 mg/kg/injection, schedule: Q04DX003 (ip), vehicle: saline with Tween-80.
Setting [2] is: dose: 200.0 mg/kg/injection, schedule: Q04DX003 (ip), vehicle: saline with Tween-80.
[3] abbreviates: dose: 400.0 mg/kg/injection, schedule: Q04DX003 (ip), vehicle: saline with Tween-80.
[4] abbreviates: dose: 100.0 mg/kg/injection, schedule: Q04DX003 (ip), vehicle: saline.
Setting [5] is: dose: 100.0 mg/kg/injection, schedule: Q01DX009 (ip), vehicle: saline with Tween-80.
Where [6] appears, read: dose: 12.5 mg/kg/injection, schedule: Q01DX009 (ip), vehicle: saline with Tween-80.
The mark [7] stands for this setting: dose: 25.0 mg/kg/injection, schedule: Q04DX003 (ip), vehicle: saline.
Where [8] appears, read: dose: 200.0 mg/kg/injection, schedule: Q01DX009 (ip), vehicle: saline.
Where [9] appears, read: dose: 100.0 mg/kg/injection, schedule: Q01DX009 (ip), vehicle: saline.

For the compound `Brc1csc2ncccc12`, the survivor count (dose: 400.0 mg/kg/injection, schedule: Q04DX003 (ip), vehicle: Klucel (hydroxypropylcellulose) (HPC)) is 1 of 6.
With `O=S(=O)(O)c1ccc(/C2=c3\cc/c([n-]3)=C(\c3ccc(S(=O)(=O)O)cc3)c3ccc([n-]3)/C(c3ccc(S(=O)(=O)O)cc3)=c3/cc/c([n-]3)=C(\c3ccc(S(=O)(=O)O)cc3)c3ccc2[n-]3)cc1.[Zn]`, where the note is “dose: 31.25 mg/kg/injection, schedule: Q01DX009 (ip), vehicle: saline with Tween-80”, the T/C is 132 % of control. Further, the survivor count by setting is: (dose: 125.0 mg/kg/injection, schedule: Q01DX009 (ip), vehicle: saline with Tween-80) 6 of 6; (dose: 250.0 mg/kg/injection, schedule: Q01DX009 (ip), vehicle: saline with Tween-80) 0 of 6.
Turning to `OC1C(c2ccccc2)=C(c2ccccc2)C2(c3ccccc3)CC12c1ccccc1` (stereo not given), the survivor count was 5 of 6 under setting [1], 0 of 6 under setting [2] and 1 of 6 under setting [3].
Regarding `C[N+]1=C2CCCCCC2=C(N)CC1`, the survivor count is 6 of 6 (dose: 6.25 mg/kg/injection, schedule: Q04DX003 (ip), vehicle: saline sonified) and 6 of 6 (dose: 25.0 mg/kg/injection, schedule: Q04DX003 (ip), vehicle: saline sonified).
For `N#CCCCCCCCC#N`, the survivor count (dose: 6.25 mg/kg/injection, schedule: Q04DX009 (ip), vehicle: saline) is 1 of 6; the survivor count (dose: 12.5 mg/kg/injection, schedule: Q04DX009 (ip), vehicle: saline) is given as 0 of 6; the survivor count (dose: 25.0 mg/kg/injection, schedule: Q04DX009 (ip), vehicle: saline) is given as 0 of 6.
As for `CC1=CCCC(C)C12CCC(C(C)(C)O)C2` (stereo not given), the survivor count (dose: 400.0 mg/kg/injection, schedule: Q01DX009 (ip), vehicle: saline with Tween-80) was 5 of 6.
Regarding `O=NN(CCF)C(=O)NC1CCS(=O)(=O)CC1`, the T/C (dose: 0.6 mg/kg/injection, schedule: Q04DX003 (ip), vehicle: saline) is 145 % of control. Besides, the survivor count by setting is: under setting [1], 0 of 6; under setting [2], 0 of 6; under setting [3], 0 of 6.
Regarding `CSc1ncnc2c1ncn2CCCl`, under setting [3], the survivor count is 1 of 6.
Regarding `N=c1c2ccccc2nc2n1CCCCC2`, the survivor count by setting is: under setting [4], 3 of 6; (dose: 200.0 mg/kg/injection, schedule: Q04DX003 (ip), vehicle: saline) 4 of 6; (dose: 400.0 mg/kg/injection, schedule: Q04DX003 (ip), vehicle: saline) 0 of 6.
As to `c1ccc(SCN2CCN(CSc3ccccc3)CC2)cc1`, the survivor count (dose: 25.0 mg/kg/injection, schedule: Q01DX001 (ip), vehicle: saline) was 6 of 6.
In the case of `O=C1CC2(C(=O)N1CN1CCN(c3ccc(F)cc3)CC1)c1ccccc1-c1ccccc12` (tested in a mixture with another compound), the T/C (dose: 50.0 mg/kg/injection, schedule: Q04DX003 (ip), vehicle: saline with Tween-80) is 135 % of control and the T/C under setting [1] is 146 % of control [5 of 6 alive]. Moreover, the survivor count under setting [2] was 2 of 6 and 3 of 6.
Consider `COC(=O)C[CH2][Pb]([c]1ccccc1)([c]1ccccc1)[c]1ccccc1`, for which the survivor count under setting [5] is listed as 1 of 3.
For the compound `C[Si](C)(OC(=O)N(CCCl)CCCl)O[Si](C)(C)OC(=O)N(CCCl)CCCl`, the T/C under setting [6] is 147 % of control.
As to `CS(=O)(=O)OCCN(CCOS(C)(=O)=O)c1cccc(Cl)c1`, the T/C runs as follows: (dose: 5.5 mg/kg/injection, schedule: Q01DX009 (ip), vehicle: Klucel (hydroxypropylcellulose) (HPC)) 136 % of control; (dose: 8.3 mg/kg/injection, schedule: Q01DX009 (ip), vehicle: Klucel (hydroxypropylcellulose) (HPC)) 145 % of control; (dose: 12.5 mg/kg/injection, schedule: Q04DX003 (ip), vehicle: saline) 130 % of control; under setting [7], 140 % of control; (dose: 33.0 mg/kg/injection, schedule: Q04DX003 (ip), vehicle: other) 145 % of control.
Take `Nc1nc(=S)c2ncn(C3OC(CO)CC3O)c2[nH]1` (stereo not given): the survivor count under setting [8] is listed as 5 of 6 and the survivor count (dose: 400.0 mg/kg/injection, schedule: Q01DX009 (ip), vehicle: saline) is 3 of 6.
In the case of `Nc1nc(N)c2cc(NCc3ccccc3Cl)ccc2n1`, the T/C reads like this: (dose: 6.25 mg/kg/injection, schedule: Q01DX009 (ip), vehicle: saline with Tween-80) 131 % of control; under setting [6], 145 % of control; (dose: 25.0 mg/kg/injection, schedule: Q01DX009 (ip), vehicle: saline with Tween-80) 145 % of control. For the same compound, the survivor count (dose: 35.0 mg/kg/injection, schedule: Q01DX009 (ip), vehicle: Klucel (hydroxypropylcellulose) (HPC)) is reported as 1 of 6; the survivor count (dose: 37.5 mg/kg/injection, schedule: Q04DX003 (ip), vehicle: Klucel (hydroxypropylcellulose) (HPC)) is on record as 2 of 6; the survivor count (dose: 55.0 mg/kg/injection, schedule: Q01DX009 (ip), vehicle: Klucel (hydroxypropylcellulose) (HPC)) is reported as 0 of 6; the survivor count (dose: 75.0 mg/kg/injection, schedule: Q04DX003 (ip), vehicle: Klucel (hydroxypropylcellulose) (HPC)) is reported as 0 of 6; the survivor count (dose: 80.0 mg/kg/injection, schedule: Q01DX009 (ip), vehicle: Klucel (hydroxypropylcellulose) (HPC)) is 1 of 6.
For the compound `CN/N=C/c1cccnc1`, the survivor count under setting [5] was 6 of 6 and the survivor count (dose: 200.0 mg/kg/injection, schedule: Q01DX009 (ip), vehicle: saline with Tween-80) was 1 of 6.
Regarding `Cc1cc(C)c(C#N)c(=O)[nH]1`, under setting [8], the survivor count was 5 of 6.
For `OCCOCCN1CCN(CCCN2c3ccccc3Sc3ccc(C(F)(F)F)cc32)CC1`, the survivor count is listed as 6 of 6 (dose: 3.12 mg/kg/injection, schedule: Q01DX009 (ip), vehicle: saline); 6 of 6 (dose: 6.25 mg/kg/injection, schedule: Q01DX009 (ip), vehicle: saline); 4 of 7 (dose: 12.5 mg/kg/injection, schedule: Q01DX009 (ip), vehicle: saline); 2 of 7 (dose: 25.0 mg/kg/injection, schedule: Q01DX009 (ip), vehicle: saline); 0 of 7 (dose: 50.0 mg/kg/injection, schedule: Q01DX009 (ip), vehicle: saline); 0 of 7 under setting [9]. Besides, the survivor count under setting [4] is 3 of 6 and 4 of 6. In addition, the T/C under setting [7] was 126 % of control; the T/C (dose: 50.0 mg/kg/injection, schedule: Q04DX003 (ip), vehicle: saline) is 129 and 145 % of control.
`CCOC1OCN(C)CC1(C)C` (stereo not given): the T/C is 140 % of control (dose: 50.0 mg/kg/injection, schedule: Q01DX009 (ip), vehicle: saline with Tween-80); 136 % of control (dose: 66.0 mg/kg/injection, schedule: Q01DX009 (ip), vehicle: saline); 140 % of control under setting [9]; 126 % of control (dose: 150.0 mg/kg/injection, schedule: Q01DX009 (ip), vehicle: saline).
With `CC1=CC2=NC(=O)C(c3ccccc3)C(=O)N2C=C1` (stereo not given), the survivor count is, setting by setting: (dose: 100.0 mg/kg/injection, schedule: Q04DX003 (ip), vehicle: Klucel (hydroxypropylcellulose) (HPC)) 6 of 6; (dose: 200.0 mg/kg/injection, schedule: Q04DX003 (ip), vehicle: Klucel (hydroxypropylcellulose) (HPC)) 6 of 6.
